# In PubChem BioAssay (NCATS):
# The inconclusive results got no clear call from the source; some entries with a clear call stand among them for comparison. For some assays here: A potency beside an inconclusive call is a rough fit, not a confirmed value. Calls of active or inactive are those of the source. Calls follow the shape of the dose curve; as a rule, active = well fitted curve in the direction sought with a large enough effect; inconclusive = small, poorly fitted or top-dose-only effect, or another doubt; inactive = no such curve, though single readings can be large; an effect the other way counts as inactive or inconclusive.
# Key:
# [1] = Quantitative High-Throughput drug screen in 47 multiple myeloma cell lines against the NCATS MIPE library collection: Karpas417_ECACC cell viability assay (AID 1918961); settings: Karpas417 myeloma viability, CellTiter-Glo ATP luminescence, 48 h; viability (% of DMSO): at 45.8 µM (top of the series); also: potency is read from the fitted curve at half-maximal effect
# In short: (§1)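 CellTiter-Glo ATP luminescence gave viability after 48 h compound treatment at 37C of 500 multiple myeloma cells per well. Normalisation used DMSO-only wells as 100% and media-only wells as 0% viability; primary qHTS of approved and investigational drugs.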
# [2] = Quantitative High-Throughput drug screen in 47 multiple myeloma cell lines against the NCATS MIPE library collection: JIM3_ECACC cell viability assay (AID 1918963; also: nearly all actives have a fitted effect of over 35% in size; also: potency is read from the fitted curve at half-maximal effect); settings: JIM3 myeloma viability, CellTiter-Glo ATP, 48 h; series mostly up to 45.8 µM
# In short: (§2)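 Myeloma cells (500 per well) were exposed to MIPE 4.0 compounds by pin transfer and incubated 48 hours at 37C, 5% CO2. Viability was read as ATP by CellTiter-Glo luminescence, normalised to DMSO (100%) and media-only (0%) wells.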
# [3] = Quantitative High-Throughput drug screen in 47 multiple myeloma cell lines against the NCATS MIPE library collection: JIM1_ECACC cell viability assay (AID 1918964; also: potency is read from the fitted curve at half-maximal effect); settings: JIM1 myeloma viability, CellTiter-Glo ATP luminescence, 48 h; viability (% of DMSO): at 45.8 µM (top of the series)
# In short: (§3)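 Primary qHTS used for cherry-picking: cells at 500/well, library compounds for 48 h (37C, 5% CO2), luminescent ATP assay.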
# [4] = Quantitative High-Throughput drug screen in 47 multiple myeloma cell lines against the NCATS MIPE library collection: INA6_PLB cell viability assay (AID 1918965; also: nearly all actives have a fitted effect of over 55% in size; also: potency is read from the fitted curve at half-maximal effect); settings: INA6 myeloma viability, CellTiter-Glo ATP luminescence, 48 h; series mostly up to 45.8 µM
# In short: as §1
# [5] = Quantitative High-Throughput drug screen in 47 multiple myeloma cell lines against the NCATS MIPE library collection: JJN3_DSMZ cell viability assay (AID 1918966; also: nearly all actives have a fitted effect of over 50% in size; also: potency is read from the fitted curve at half-maximal effect)
# In short: as §3
# [6] = Quantitative High-Throughput drug screen in 47 multiple myeloma cell lines against the NCATS MIPE library collection: Karpas25_ECACC cell viability assay (AID 1918968; also: nearly all actives have a fitted effect of over 35% in size; also: potency is read from the fitted curve at half-maximal effect)
# In short: as §3
# [7] = Quantitative High-Throughput drug screen in 47 multiple myeloma cell lines against the NCATS MIPE library collection: KMS27_JCRB cell viability assay (AID 1918970); settings: KMS27 myeloma cells, CellTiter-Glo ATP viability, 48 h; viability (% of DMSO): at 45.8 µM (top of the series); also: nearly all actives have a fitted effect of over 30% in size; also: potency is read from the fitted curve at half-maximal effect
# In short: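 Myeloma cells (500 per well) were exposed to MIPE 4.0 compounds for 48 h at 37 °C, 5% CO2; viability was read as ATP luminescence with CellTiter-Glo, normalized to DMSO-only (100%) and media-only (0%) wells.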
# [8] = Quantitative High-Throughput drug screen in 47 multiple myeloma cell lines against the NCATS MIPE library collection: KMS12BM_JCRB cell viability assay (AID 1918971); also: nearly all actives have a fitted effect of over 35% in size; also: potency is read from the fitted curve at half-maximal effect
# In short: (§4)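 Myeloma cell lines, 500 cells per well, exposed to MIPE 4.0 library compounds for 48 h at 37C, 5% CO2. Viability from ATP by CellTiter-Glo luminescence; normalised to DMSO (100%) and media-only (0%) wells.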
# [9] = Quantitative High-Throughput drug screen in 47 multiple myeloma cell lines against the NCATS MIPE library collection: KMS20_JCRB cell viability assay (AID 1918973); settings: CellTiter-Glo ATP, 48 h; viability (% of DMSO): at 45.8 µM (top of the series); also: nearly all actives have a fitted effect of over 45% in size; also: potency is read from the fitted curve at half-maximal effect
# In short: as §3
# [10] = Quantitative High-Throughput drug screen in 47 multiple myeloma cell lines against the NCATS MIPE library collection: KMS26_JCRB cell viability assay (AID 1918975); settings: KMS26 myeloma cells viability, CellTiter-Glo ATP, 48 h; viability (% of DMSO): at 45.8 µM (top of the series); also: nearly all actives have a fitted effect of over 45% in size; also: potency is read from the fitted curve at half-maximal effect
# In short: as §4
# [11] = Quantitative High-Throughput drug screen in 47 multiple myeloma cell lines against the NCATS MIPE library collection: MMM1_PLB cell viability assay (AID 1918976); also: nearly all actives have a fitted effect of over 35% in size; also: potency is read from the fitted curve at half-maximal effect
# In short: (§5)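 ATP-based CellTiter-Glo luminescence after 48 h drug exposure (37 °C, 5% CO2) of 500 myeloma cells per well. DMSO-only wells set 100% viability, media-only wells 0%; MIPE 4.0 library added by pin tool.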
# [12] = Quantitative High-Throughput drug screen in 47 multiple myeloma cell lines against the NCATS MIPE library collection: MOLP8_DSMZ cell viability assay (AID 1918977); also: nearly all actives have a fitted effect of over 45% in size; also: potency is read from the fitted curve at half-maximal effect
# In short: as §5
# [13] = Quantitative High-Throughput drug screen in 47 multiple myeloma cell lines against the NCATS MIPE library collection: NCIH929_DSMZ cell viability assay (AID 1918978); settings: NCI-H929 myeloma viability, CellTiter-Glo ATP, 48 h; series mostly up to 45.8 µM
# In short: as §5
# [14] = Quantitative High-Throughput drug screen in 47 multiple myeloma cell lines against the NCATS MIPE library collection: OCIMY1_PLB cell viability assay (AID 1918979)
# In short: as §5
# [15] = Quantitative High-Throughput drug screen in 47 multiple myeloma cell lines against the NCATS MIPE library collection: MM1S_ATCC cell viability assay (AID 1918980); also: nearly all actives have a fitted effect of over 45% in size; also: potency is read from the fitted curve at half-maximal effect
# In short: as §5
# [16] = Quantitative High-Throughput drug screen in 47 multiple myeloma cell lines against the NCATS MIPE library collection: MM1R_ATCC cell viability assay (AID 1918981)
# In short: as §5
# [17] = Quantitative High-Throughput drug screen in 47 multiple myeloma cell lines against the NCATS MIPE library collection: KMS21BM_JCRB cell viability assay (AID 1918974); settings: ATP luminescence, 48 h; viability: at 45.8 µM (top of the series); also: potency is read from the fitted curve at half-maximal effect
# In short: as §3
# [18] = Quantitative High-Throughput drug screen in 47 multiple myeloma cell lines against the NCATS MIPE library collection: KMS12PE_JCRB cell viability assay (AID 1918972); settings: KMS12PE myeloma viability, CellTiter-Glo ATP, 48 h; viability: at 45.8 µM (top of the series); also: nearly all actives have a fitted effect of over 30% in size
# In short: as §1
# [19] = Quantitative High-Throughput drug screen in 47 multiple myeloma cell lines against the NCATS MIPE library collection: KHM11_PLB cell viability assay (AID 1918962); settings: KHM11 myeloma cell viability, CellTiter-Glo ATP luminescence, 48 h; series mostly up to 45.8 µM; also: nearly all actives have a fitted effect of over 35% in size; also: potency is read from the fitted curve at half-maximal effect
# In short: as §2
# [20] = Quantitative High-Throughput drug screen in 47 multiple myeloma cell lines against the NCATS MIPE library collection: H1112_PLB cell viability assay (AID 1918967; also: potency is read from the fitted curve at half-maximal effect; nearly all actives have a fitted effect of over 30% in size)
# In short: as §3
Compound,Potency [1],Potency [2],Potency [3],Potency [4],Potency [5],Potency [6],Potency [7],Potency [8],Potency [9],Potency [10],Potency [11],Potency [12],Potency [13],Potency [14],Potency [15],Potency [16],Potency [17],Potency [18],Potency [19],Potency [20]
COc1ccc(CC2NCCc3cc(OC)c(OC)cc32)cc1OC (stereo unspecified),inactive,inactive,"inconclusive: 0.0264 µM [rising, full curve, poor fit]","inconclusive: 1.48 µM [cytotoxic, full curve, poor fit]","inconclusive: 3.72 µM [cytotoxic, full curve, poor fit]","inconclusive: 10.5 µM [cytotoxic, partial curve]",inactive,inactive,"inconclusive: 0.0042 µM [rising, full curve, poor fit]",inactive,"inconclusive: 0.0033 µM [rising, full curve]",inactive,"inconclusive: 14.8 µM [cytotoxic, partial curve]","inconclusive: 0.0074 µM [rising, full curve]","inconclusive: 26.4 µM [cytotoxic, single point]","inconclusive: 0.0042 µM [rising, full curve, poor fit]",–,–,–,–
Cc1c(C(=O)c2cccc3ccccc23)c2cccc3c2n1[C@H](CN1CCOCC1)CO3,"inconclusive: 5.26 µM [cytotoxic, partial curve, poor fit]",active: 23.5 µM,"inconclusive: 6.62 µM [cytotoxic, partial curve, poor fit]",–,–,–,"inconclusive: 11.8 µM [cytotoxic, single point]",–,active: 18.7 µM,–,–,"inconclusive: 10.5 µM [cytotoxic, partial curve, poor fit]",–,"inconclusive: 33.2 µM [cytotoxic, single point]","inconclusive: 16.6 µM [cytotoxic, partial curve]","inconclusive: 29.6 µM [cytotoxic, single point]","inconclusive: 29.6 µM [rising, single point]",–,–,–
CC(C)[C@]12O[C@@H]1[C@@H]1O[C@]13[C@]1(O[C@H]1C[C@@H]1C4=C(CC[C@@]13C)C(=O)OC4)[C@H]2O,inactive,inactive,inactive,inactive,inactive,inactive,–,inactive,inactive,inactive,inactive,inactive,–,–,inactive,–,inactive,inactive,–,–
COC[C@H]1OC(=O)c2coc3c2[C@@]1(C)C1=C(C3=O)C2CCC(=O)[C@@]2(C)C[C@H]1OC(C)=O (stereo partly specified),"inconclusive: 6.62 µM [cytotoxic, full curve, poor fit]",–,active: 8.33 µM,–,–,–,active: 14.8 µM,active: 10.5 µM,"inconclusive: 2.96 µM [cytotoxic, partial curve, poor fit]",active: 1.18 µM,–,active: 1.32 µM,–,"inconclusive: 16.6 µM [cytotoxic, partial curve]",–,–,"inconclusive: 4.69 µM [cytotoxic, full curve, poor fit]",–,active: 3.32 µM,–
O=c1[nH]c2ccccc2n1C1CCN(Cc2ccc(-c3[nH]c4cc5ncnc5cc4nc3-c3ccccc3)cc2)CC1,active: 1.48 µM,–,active: 4.69 µM,–,–,–,–,–,active: 2.35 µM,active: 23.5 µM,–,"inconclusive: 29.6 µM [cytotoxic, single point]",–,–,–,–,active: 16.6 µM,–,inactive,–
C[C@]12CC[C@H]3[C@@H](CCC4=CC(=O)CC[C@@]43C)[C@H]1CC[C@H]2OC(=O)CCC1CCCC1,"inconclusive: 0.0083 µM [cytotoxic, full curve, poor fit]","inconclusive: 26.4 µM [cytotoxic, single point]","inconclusive: 9.35 µM [rising, partial curve, poor fit]","inconclusive: 37.2 µM [cytotoxic, single point]","inconclusive: 20.9 µM [cytotoxic, partial curve, poor fit]",–,inactive,"inconclusive: 33.2 µM [cytotoxic, single point]","inconclusive: 23.5 µM [cytotoxic, single point]","inconclusive: 18.7 µM [cytotoxic, partial curve, poor fit]",–,"inconclusive: 37.2 µM [cytotoxic, single point]","inconclusive: 26.4 µM [cytotoxic, single point]",–,"inconclusive: 33.2 µM [cytotoxic, single point]","inconclusive: 37.2 µM [cytotoxic, single point]",–,–,–,"inconclusive: 37.2 µM [cytotoxic, partial curve, poor fit]"
